Here are results for one compound from US20040236208A1, “Method for evaluation of tissue adhesion level” (SEIKAGAKU CORPORATION, priority 2003, published 2004).

Molecules are shown by their SMILES.

The data set deals with scar tissue (between the vertebral body and dura). Description: MRI imaging after gadolinium administration, L6 laminectomy adhesion model (Example 1). The data set is classed as in vivo, NZW rabbits. Here is the method: From NZW rabbits (n=10), the vertebral arch of the sixth lumbar vertebra was excised (L6 Laminectomy) (FIG. 1). On Week 4, gadolinium was administered, followed by MRI imaging.
An MRI image in the gadolinium free case is shown on the left side of FIG. 2, while an MRI image when gadolinium was administered is shown on the right side.
FIG. 3 is an enlarged cross-sectional view of the boundary surface between the vertebral body and dura. The diagram on the left side of FIG. 3 is one example in which the length of a site stained by gadolinium in the cross-section of the boundary surface between the vertebral body and dura is regarded as “Grade 0”. In this cross-section of the boundary surface between the vertebral body and dura, the length of the site stained by gadolinium is 0.00 mm.
In such a manner, the site from which the vertebral arch of the sixth lumbar vertebra had been excised was subjected to MRI imaging at intervals of 2.5 mm and the length of the site stained by gadolinium in the cross-section of the boundary surface between the vertebral body and dura was measured.
Thereafter, the spinal column was taken out and was fenestrated to make an opening of about 17 mm on the side (anterior) opposite to the adhesion formed surface (posterior). At the opening portion, a clamp was set and a force necessary for separating the spinal cord with dura was measured (FIG. 5). FIG. 6 illustrates the actual separation work of the spinal cord with dura. The force necessary for separation directly reflects the adhesion level so that it becomes an index of the adhesion level. FIG. 7 illustrates the actual separation work of the spinal cord with dura and one example of the relationship between the displacement and force required therefor.
The correlation between the maximum force necessary for separation and “length of a site stained by gadolinium in the cross-section of the boundary surface between the vertebral body and dura” as measured by MRI was analyzed. The result is shown in FIG. 9 (n=9, p<0.10)(r^2=0.5724).

As for `[Gd]` [gadolinium], the “length of the site stained by gadolinium in the cross-section of the boundary surface between the vertebral body and dura” value was found to be 0.00 mm (example regarded as Grade 0, FIG. 3 left); 1.31 mm (example regarded as Grade 1, FIG. 3 centre); 2.43 mm (example regarded as Grade 2, FIG. 3 right). Also, the “scar tissue (between the vertebral body and dura) on the MRI image” value (gadolinium administered, fat signals suppressed, Week 4 after L6 laminectomy, FIG. 2 right) is listed as “white highlighted”.
